# Some of the results follow.
# By UniProt entry, the sequences of proteins in these tests, tags left out.
# UniProt Q0JBA9, entry or part of it: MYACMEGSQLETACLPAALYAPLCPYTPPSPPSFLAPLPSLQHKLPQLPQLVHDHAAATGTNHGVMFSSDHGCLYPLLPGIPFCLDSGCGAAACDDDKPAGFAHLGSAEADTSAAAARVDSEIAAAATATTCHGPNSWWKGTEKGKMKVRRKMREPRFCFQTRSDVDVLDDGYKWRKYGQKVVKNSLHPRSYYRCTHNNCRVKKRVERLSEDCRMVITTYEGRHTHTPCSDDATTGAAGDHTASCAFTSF
# Biological target: OsWRKY34 (Oryza sativa, UniProt Q0JBA9 1-250)
# Test: protein-binding microarray (RPBM); PBS, 2% BSA, 51.3 ng/ul salmon testes DNA, 50 uM zinc acetate, 200 nM TF, 25 C, 1 h; high values mean tight binding
# Conditions: protein: recombinant; tags: N-terminal polyhistidine and DsRed monomer fusion (pET32a); label: CyDye5-dUTP incorporated in the synthesized complementary strand; 3' TTTTT single-stranded linker to array surface; dsDNA, one strand shown
# Method in brief: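 Transcription factors were made in E. coli BL21-CodonPlus as N-terminal fusions to a polyhistidine tag and DsRed, then purified on Ni–NTA. After primer extension with Cy5-dUTP and blocking with 2% BSA, a custom Agilent array was exposed for 1 h at 25 °C to 200 nM protein in PBS, 2% BSA, salmon testes DNA and 50 µM zinc acetate. Washed arrays were scanned on an Axon 4000B, and the binding signal is per-feature fluorescence intensity in arbitrary units.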
row,Sequence,binding signal
1,TAGCATTTCTACTTTTGATTCTATTTGTTTGTGTTGTTATCGGAGTCACCTAGTGCAG,11900 fluorescence intensity (a.u.)
2,AATTTCTCGGTCTAACCAAATGCCCACCCGTACTACTACACGGAGTCACCTAGTGCAG,8410 fluorescence intensity (a.u.)
3,AAACCCACTAATTATTGTCCTTCATTTGGCCCTTCATATACGGAGTCACCTAGTGCAG,8560 fluorescence intensity (a.u.)
4,TGTGCTTTTTAATGTTTTATGGGATTTTTTCTAACTCTCACGGAGTCACCTAGTGCAG,8710 fluorescence intensity (a.u.)
5,TCGGCTCTCCGATCTCGAATTCCCCTGGCTTTCTCGCCTACGGAGTCACCTAGTGCAG,8350 fluorescence intensity (a.u.)
6,CTTTCCGTCTTCCACCCGAGTTGTCGCCGACTAGATCATCCGGAGTCACCTAGTGCAG,9600 fluorescence intensity (a.u.)
7,ACGATATGACGTTTCTACCCCTCATTGCCATGCATTCTACCGGAGTCACCTAGTGCAG,9220 fluorescence intensity (a.u.)
8,TTCCTTTTTCATCTTCTTTTCACATTTTTTCTTTATTTTTCGGAGTCACCTAGTGCAG,12400 fluorescence intensity (a.u.)
9,ATTCCCATTGCTTGTTTGATTGTGGTTTTGCCACAGGGTGCGGAGTCACCTAGTGCAG,9560 fluorescence intensity (a.u.)
10,CACCTACACCGCATCACGTGCCGTCCACCTGGATCTTATCCGGAGTCACCTAGTGCAG,9190 fluorescence intensity (a.u.)
11,TCAAGTTCATCCTCAACCCAAAGTTTTCCTCTCTCTTCTCCGGAGTCACCTAGTGCAG,8240 fluorescence intensity (a.u.)
12,CAATAATTCTTCTGCTCTGCTAATTATTAGCTCTCATCTTCGGAGTCACCTAGTGCAG,10300 fluorescence intensity (a.u.)
13,TTCCATCCGCTATTCTGGCCATCTCTCTAGCTCCTTGTATCGGAGTCACCTAGTGCAG,14000 fluorescence intensity (a.u.)
14,CACCAACACAGTTTGTAATGCATGTGTTCCCTTTTTTGCTCGGAGTCACCTAGTGCAG,8730 fluorescence intensity (a.u.)
15,CTCCTCTCGTTTGGTTCTCCTCTGTCCATGCAGTAACTGACGGAGTCACCTAGTGCAG,9240 fluorescence intensity (a.u.)
16,TTTTCTTATTGAATTGTTGGCTACAATTTTTCTTTGGTTCCGGAGTCACCTAGTGCAG,8090 fluorescence intensity (a.u.)
17,CGTGTTTGGTTGTCCGGACCACACCTGGCTTGCACCTAGCCGGAGTCACCTAGTGCAG,8820 fluorescence intensity (a.u.)
18,CTCAAATAACTCAACGTTGCTCCTGTACACCTCGAACCTCCGGAGTCACCTAGTGCAG,8680 fluorescence intensity (a.u.)
19,AAAGTCATCTTTATCTTCTTCTGCTTGTGCATGTGTGACACGGAGTCACCTAGTGCAG,8590 fluorescence intensity (a.u.)
20,AAGTTTCATTTTCGGTTGTGGGGACATCTATTTGAGCGTGCGGAGTCACCTAGTGCAG,9070 fluorescence intensity (a.u.)
21,ATTACTCTCTCTTTCATGTGCATGCGTGCTAGTTTGCATACGGAGTCACCTAGTGCAG,8470 fluorescence intensity (a.u.)
22,TCTCGCTGAACGCCACGCTGCTCTCCGCTCTTCCTCCAGGCGGAGTCACCTAGTGCAG,8500 fluorescence intensity (a.u.)
23,TATCTTACATCCCAAGGTATTACGTTAACATATTTTGGGTCGGAGTCACCTAGTGCAG,8750 fluorescence intensity (a.u.)
24,TTATGTAATCCAATTCGCATCCGTCGATCACAAACCCACCCGGAGTCACCTAGTGCAG,9060 fluorescence intensity (a.u.)
25,GTTAATTGGTTAATTCCATTGTTTCGCGCTCGTGGTTTCTCGGAGTCACCTAGTGCAG,15600 fluorescence intensity (a.u.)
26,GTTTTGGGTCTCGGATTGATCGCTTGGAGCTCCATTGCCACGGAGTCACCTAGTGCAG,9220 fluorescence intensity (a.u.)
27,GAGTTGGTTGTCCTATAGGACGAGGCTTGGGAAGTGTTGACGGAGTCACCTAGTGCAG,8420 fluorescence intensity (a.u.)

# Exported tab-delimited: part of the list above
row	Sequence	binding signal
1	TAGCATTTCTACTTTTGATTCTATTTGTTTGTGTTGTTATCGGAGTCACCTAGTGCAG	11900 fluorescence intensity (a.u.)
2	AATTTCTCGGTCTAACCAAATGCCCACCCGTACTACTACACGGAGTCACCTAGTGCAG	8410 fluorescence intensity (a.u.)

# Additional records follow:

row,Sequence,binding signal
1,GATGTTCAATTCTCATGTTCTTATACTATATCGCACCCACCGGAGTCACCTAGTGCAG,9990 fluorescence intensity (a.u.)
2,ATCCTAGTCTCTTGCTCCTTTTGTGGAGTGTTCTTTCTGTCGGAGTCACCTAGTGCAG,8840 fluorescence intensity (a.u.)
3,TAGTTCCTTTCTTGACTTTTTTTTCCTTTTCTGCCCCTATCGGAGTCACCTAGTGCAG,10200 fluorescence intensity (a.u.)
4,GTTTGCATCCATCGTCTACCCGATACACCGGCGCTCTCCGCGGAGTCACCTAGTGCAG,9820 fluorescence intensity (a.u.)
5,GTCGAAATCCCATTTCCTTTCAGCGACCGCACAGAAACCTCGGAGTCACCTAGTGCAG,8070 fluorescence intensity (a.u.)
6,AGCCATAAATCACACCCATTCATCTCTCTCAACTCTCTGCCGGAGTCACCTAGTGCAG,8460 fluorescence intensity (a.u.)
7,TGTTCATCTACTATATGATTGTGTGCATGATATCATCGTCCGGAGTCACCTAGTGCAG,9620 fluorescence intensity (a.u.)
8,AAGTTGTGGTTTGATGGAGAAGATAAGCTAATTCCTTGGTCGGAGTCACCTAGTGCAG,8430 fluorescence intensity (a.u.)
9,CCAACCCTGCCTTCCGCACGCCGCACCTCCGCACCGCCTACGGAGTCACCTAGTGCAG,10700 fluorescence intensity (a.u.)
10,CTCATCTCATCTCCACCGTCAATTCGTTTCGCTATCCTCCCGGAGTCACCTAGTGCAG,11200 fluorescence intensity (a.u.)
11,CCTATGCGTGATCCGCAACCGCTCTCAACCTCCAAGAGCTCGGAGTCACCTAGTGCAG,8690 fluorescence intensity (a.u.)
12,ACGCGGGCGAGGTTGGTTGGCTTGTTCTTTCGTTGATGTGCGGAGTCACCTAGTGCAG,14300 fluorescence intensity (a.u.)
13,ACAGGGGAGGGGCGGCGATCTCCATCCGGCGAGCGGAGCACGGAGTCACCTAGTGCAG,12200 fluorescence intensity (a.u.)
14,ACCTCGTCCTACTCCTATCACATCATACCACACAGCAATGCGGAGTCACCTAGTGCAG,8160 fluorescence intensity (a.u.)
15,ATCACTTTACTAACTTTTTCTTTATCCCCTCCTTTCTTCACGGAGTCACCTAGTGCAG,8990 fluorescence intensity (a.u.)
16,ATTTTGGGAATCATTTCTTAGTTGTTCTGTATATATACGACGGAGTCACCTAGTGCAG,8070 fluorescence intensity (a.u.)
17,CAGAACGACCGACCGTACTTCTGGTTCCCCGTCCACCTCCCGGAGTCACCTAGTGCAG,9330 fluorescence intensity (a.u.)
18,AGCCCATCGAACGACCCACCTACGTACGCCGCGTGGTCCTCGGAGTCACCTAGTGCAG,8270 fluorescence intensity (a.u.)
19,GGGGTGGTGGGTGGCAAGGGGCTGCGCCGCCATCCCATCACGGAGTCACCTAGTGCAG,9800 fluorescence intensity (a.u.)
20,CATGTCTGTCAGATTCAGAAGTGGATTGCTGCGCACCGGCCGGAGTCACCTAGTGCAG,9140 fluorescence intensity (a.u.)
21,AACCATGTATACCTTTCTTCATCAGCTACCGGAACAATTGCGGAGTCACCTAGTGCAG,8192 fluorescence intensity (a.u.)
22,GCTTCTGCTTCTTCTTGTTCTTGTTGCTGTTGGTAATACTCGGAGTCACCTAGTGCAG,11000 fluorescence intensity (a.u.)
23,CTCACGGACCTTTTCCTGGGACCTTTTTTGCACTTTTCTTCGGAGTCACCTAGTGCAG,11700 fluorescence intensity (a.u.)
24,TGACTAACCTGCCTGATTGTCACAGGTCCCACTAGCTCTTCGGAGTCACCTAGTGCAG,10300 fluorescence intensity (a.u.)
25,CTCCTTGTCGTTTATCGTGTAAACCATCCATGCATCTCCACGGAGTCACCTAGTGCAG,9340 fluorescence intensity (a.u.)
26,GGTGGTGTTCTTTTCTTCTGTAAATAAGTGATTAATTAAGCGGAGTCACCTAGTGCAG,8720 fluorescence intensity (a.u.)
27,GCTACAACTCTTATCATATCTTCGCCTATATATATCGCTCCGGAGTCACCTAGTGCAG,9490 fluorescence intensity (a.u.)

# From article PMC7819943, “Rice protein-binding microarrays: a tool to detect cis-acting elements near promoter regions in rice”
